## Primary screen of a compound library

Measurements from “University of Dundee, Small-Polar-MMV Screening Library” (2021), ChEMBL document CHEMBL3988442.

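Viability assay of Plasmodium falciparum sporozoites; the read-out is not stated. The concentration is filed as 10 mM, unlikely as a test dose, so the dose is not known. The record gives no direction; compounds that gave an IC50 in retests scored well above the rest, so higher reads as lower viability. Strong results were mostly tested again. About 34,000 compounds were tested under these conditions; 0.84% (about 280) showed 50% or more at least once.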

Values are the deposited “Percent Effect”, in %. The record does not define 0% and 100%; most values in the screen are far below 50% and negative numbers occur (in some assays of this library far below -100). This is an unselected part of the compounds tested. Two or more numbers in one place are separate tests of the same structure; such repeats can differ widely.

structure | effect
Cc1nc(CN2CCc3ncnc(-c4cccnc4)c3CC2)cs1.O=C(O)C(F)(F)F.O=C(O)C(F)(F)F | 15.18
CCN(CC)S(=O)(=O)N1CCCC1c1nnc2n1CCCCC2 (stereo not drawn) | -2.738
O=C(NC1CC1)c1cc(Cl)ccc1-n1cnnn1 | -8.876
Cc1nn(C)cc1S(=O)(=O)NCC(c1ccccc1)N1CCCCCC1.Cl (stereo not drawn) | -3.237
NC(=O)CC1c2cccnc2C(=O)N1Cc1ccccc1 (stereo not drawn) | -5.263
[H][C@]12CCN(C(=O)c3cc[nH]n3)[C@@]1([H])CC(=O)N2Cc1cccnc1 | 13.57
N#Cc1c(N)nc2c(c1-c1c[nH]nc1C1CCCCC1)CNCC2 | 1.644
CCN1CCN(C[C@@H]2CN(Cc3cnc(C(C)C)nc3)C[C@@H]2CO)CC1 | 0.1183
Cc1nccn1C1CCCN(C(=O)CCNc2ncccn2)C1 (stereo not drawn) | 35.94 & 0.02413 & 1.373
CC(C)c1nc2c(n1C)CCN(Cc1nc(-c3ccco3)no1)C2 | 87.48 & -22.61 & -23.38
Cc1ccc(-c2ccnc3cc(CC(=O)N4CCN(C)CC4)nn23)cc1 | -8.383
COc1ccccc1C1(O)CCCN(C(=O)c2cnc(SC)nc2)C1 (stereo not drawn) | -9.847
O=C(NCCNc1cnccn1)N1CCN(c2nccs2)CC1 | 9.368
CCC(CNC(=O)NC1CCN(C)CC1)Oc1ccccc1Cl (stereo not drawn) | 9.769
CCN(CC)C(=O)CNC(=O)c1c[nH]c2ccc(OC)cc12 | -12.19
CN1CCOCC2(CCCN(C(=O)c3ccccc3F)C2)C1.O=C(O)C(F)(F)F (stereo not drawn) | -0.1189
Cc1ccc(C2COCCN2C(=O)c2ccsc2)o1 (stereo not drawn) | -25.74
CC(c1ccc(Cl)cc1)N1CCN(CCS(C)(=O)=O)CC1 (stereo not drawn) | -8.118
Cc1nc(N(C)C)cc(C2(C)CCNCC2)n1 | 1.535
CC(C)(C)n1nnnc1CN(Cc1ccccc1)Cc1ccc(Cl)cc1 | 7.493
Cc1ccc(-c2noc(CN3CCCC(Cn4cncn4)C3)n2)cc1 (stereo not drawn) | -43.59 & -46.41 & -5.554
[H][C@@]12CCN(Cc3ccoc3)[C@]1([H])C[C@@H](C(=O)NCC1CCOCC1)O2 | 1.491
CC(=O)N1CCC(c2nc3ccc(-c4ccnn4C)cn3n2)CC1.O=C(O)C(F)(F)F | 5.396
CO[C@@H]1CO[C@@]2(CCCN(C(=O)N3CCCC3)C2)C1 | 10.13
COCCN1CCN(Cc2cnc(C3(C)CCCCO3)nc2)CC1 (stereo not drawn) | 4.042
CCOc1ccccc1C(CC(=O)Nc1ncc(C)s1)NC(C)=O (stereo not drawn) | 0.4303
CCc1ccc(S(=O)(=O)N2CCCC3(CCCN3S(C)(=O)=O)C2)cc1 (stereo not drawn) | 4.649
[H][C@@]12COC[C@]1(COc1nccc(C)n1)CN(C(=O)Cc1ccsc1)C2 | 0.4386
COc1cccc2ncn(C(C)Cn3cccn3)c(=O)c12 (stereo not drawn) | -11.85
[H][C@]12CC[C@](O)(c3ccccc3F)[C@@]1([H])CN(C(=O)c1cc(C3CC3)on1)C2 | 15.14
COc1ccccc1CN1CC[C@]2(C[C@@H](OCC(=O)N(C)C)CO2)C1.O=C(O)C(F)(F)F | 10.65
c1cnc(-c2nc(CN3CCCC(Cn4cncn4)C3)cs2)nc1 (stereo not drawn) | 1.12
C[C@@]1(O)CCN(Cc2cc[nH]n2)C[C@H]1Oc1cccc(F)c1 | 0
CCOc1ccc(CN2CCOCC2c2[nH]ncc2C)cc1CO (stereo not drawn) | -1.604
CCCc1ccc(S(=O)(=O)NC(=O)CCC2CCCO2)cc1 (stereo not drawn) | -5.795
Cc1noc(C(C)C)c1C(=O)N1CCOCC1CC(=O)c1ccco1 (stereo not drawn) | -12.51
Cc1cc(-c2ccnn2C)nc(C2CCN(S(C)(=O)=O)CC2)n1 | 16.36
Cc1[nH]ccc1C(=O)Nc1cccc(CN2CCC(CO)CC2)c1 | 14.54
Cc1cc(NC2CC3(CCN(Cc4cscn4)C3)C2)ncn1 (stereo not drawn) | 13.44
O=C(c1c[nH]c(=O)[nH]1)N1CCc2ccccc21 | -6.217
CN(C)c1cc(CNC(=O)Nc2nnc(C3CC3)s2)ccn1 | 6.617
Cc1ccc(C)c2c(O)cc(CN[C@H]3CCCCNC3=O)nc12 | -4.013
Cc1cc(C(=O)N2CCN(C(=O)Cc3ccccn3)CC2)c(C)s1 | -10.26 & -14.43 & -25.49
CNC(=O)C1(CCCc2ccccn2)CCN1Cc1coc(C)n1 (stereo not drawn) | 1.448
Cc1nn(C)c(N(C)C)c1CNCc1cccnc1OC(C)C | 12.54
Cc1nc(C)n(CC2CCCN2CCOc2ccccc2F)n1 (stereo not drawn) | 6.54
O=C(O)C(F)(F)F.[H][C@@]12CN(c3ccc(C)nn3)C[C@]1([H])OCCN2CC1CC1 | 9.879
Cc1ncc(-c2ccnc(SCCN(C)C)n2)c(-c2ccco2)n1 | 16.68
CO[C@@H]1CN(c2ccccc2)S(=O)(=O)[C@@]12CCN(C)C2 | -37.87
CCN1CC(C(=O)NCc2ccnc(-n3cccn3)c2)CC1=O (stereo not drawn) | 2.507
O=C(Nc1cccc(N2CCCC2)c1)C1CCCN1c1nccs1 (stereo not drawn) | -9.501
CC1(C(N)=O)CN(S(=O)(=O)c2cccc(F)c2)CCO1 (stereo not drawn) | 15.34
CCn1cc(NC(=O)NC2CCCc3c2cnn3CCO)cn1 (stereo not drawn) | -20.17
COc1ncccc1CNC(=O)Nc1cc(C)nn1C | -1.413
Cc1cc(Cl)ccc1-n1ncc(C(=O)NCC2COC(C)(C)O2)c1N (stereo not drawn) | -7.53
[H][C@@]12CCN(Cc3ccoc3)C[C@@]1([H])O[C@H](c1ccnc(C(C)C)n1)C2 | -17.76
CC(C)n1nc2c(cc1=O)CN(Cc1nnc(C3CC3)o1)CC2 | 1.384
CCc1nn(C)c(Cl)c1CN1CCCC2(C1)CN(C)C(=O)O2 (stereo not drawn) | 5.551
CN1CCC2(CCCN(S(=O)(=O)c3ccc(-c4cnco4)s3)C2)C1 (stereo not drawn) | -7.012 & -5.617
Cc1cc(C)n(CC2CCCCN2C(=O)c2ccc3c(c2)OCO3)n1 (stereo not drawn) | -14.22
COCCN1CCC(CN(CC2CCCO2)C(=O)CCNC(C)=O)CC1 (stereo not drawn) | -4.479
Fc1cc(CN2CCCC2Cn2cncn2)c2ncccc2c1 (stereo not drawn) | 3.485
Cn1c(C2CC2)nc2c1CCN(Cc1nc(Cc3ccccc3)no1)C2 | -22.05 & -14.16 & 1.346
O=C(O)C(F)(F)F.[H][C@]12CCN(C(=O)COC)[C@@]1([H])CC[C@@H](COCc1ccncc1)O2 | -3.886
Cc1cnn(CC2CCCN2Cc2c(C)noc2C)c1 (stereo not drawn) | 8.358
[H][C@@]12CCN(C(=O)C3CC3)C[C@]1([H])OCCN(Cc1ccc(OC)cc1)C2=O | -7.815
Cc1ccc(N2CCC(CCN3CCCC3=O)CC2)nn1 | -0.7162
O=C(c1nn(-c2ccccc2F)cc1O)N1CCC2(CC1)OCCO2 | -42.54
Cc1noc(C)c1-c1cccc(C2CN(CC(=O)N(C)C)CCO2)n1.O=CO (stereo not drawn) | 3.293
O=C1CC(NCc2ccc(Cl)s2)CN1Cc1cccc(F)c1 (stereo not drawn) | -1.384
Cn1cc(C(=O)Nc2cccc(CCN3CCCC3)c2)ccc1=O | -0.5568 & -0.5551
O[C@H]1CCCC[C@@H]1N1CCN(CCCc2ccc3c(c2)OCO3)CC1 | -13.38
CS(=O)(=O)c1nnc(NC(=O)CCc2cccs2)[nH]1 | 12.34
CC(C)CN1CC(C(=O)NCc2cccnc2-n2cccn2)CC1=O (stereo not drawn) | 9.626
[H][C@]12CC[C@](O)(CC1)C(CN1CCOCC1)N2C(=O)C1CCC1 (stereo partly drawn) | 2.584
COCCN(C)C(=O)c1ccccc1-n1cc(CN(C)C)cn1 | 8.271
CCn1ccnc1CN1CCCN(C(=O)c2cc[nH]n2)CC1 | 2.677
CCN1C(=O)C2(CCOCC2)c2cc(NC(=O)c3ccco3)ccc21 | -13.09
CCc1nnc(CN(CC)C(=O)C2CC(=O)N(CC)C2)o1 (stereo not drawn) | -16.77
CCN1CCN(C2CCN(Cc3nc(C)c(C)o3)CC2)C1=O | 10.61
O=C(c1cnccn1)N1CCc2ncc(CN3CCOCC3)n2CC1 | 1.804
CCN(CC1CCOC1)C(=O)c1ccccc1S(=O)(=O)CC (stereo not drawn) | 6.872
CC(=O)N(Cc1noc(C2CC2)n1)C1CCN(Cc2nccn2C)C1 (stereo not drawn) | 5.263
Cn1cnc(-c2nc(C(=O)NCC3CCCO3)c3ccccn23)c1 (stereo not drawn) | -2.3
O=C(CC1CC2(CCNCC2)c2ccccc21)NCC1CC1 (stereo not drawn) | -0.3376
CN(C)c1cc(C(=O)N2CCCC2c2cnn(C)c2)ccn1 (stereo not drawn) | -0.1036
Cc1cc(C(=O)N2CCC(c3nccn3CCCN(C)C)CC2)no1 | 11.92
CC(O)CN1CCC(CNCc2ccccc2Cl)CC1 (stereo not drawn) | 16.65
COC1COC2(CCN(C(=O)c3ccc4ccccc4c3)CC2)C1 (stereo not drawn) | -13.66
CC(C)(CO)NC(=O)C1CCC(=O)N(Cc2ccc(Cl)cc2)C1 (stereo not drawn) | -10.97
CC(C)COCC1CN(Cc2ccc3c(c2)OCO3)Cc2ncn(C)c21.O=C(O)C(F)(F)F.O=C(O)C(F)(F)F (stereo not drawn) | 3.833
COCCc1noc(CN2CCCC2Cn2cc(C)cn2)n1 (stereo not drawn) | -4.657

10 of the entries, repeated:

For O=C(NCCNc1cnccn1)N1CCN(c2nccs2)CC1 the result was 9.368%.
For Cc1cnn(CC2CCCN2Cc2c(C)noc2C)c1 (stereo not drawn) the result was 8.358%.
For O=C(c1nn(-c2ccccc2F)cc1O)N1CCC2(CC1)OCCO2 the result was -42.54%.
For O=C(CC1CC2(CCNCC2)c2ccccc21)NCC1CC1 (stereo not drawn) the result was -0.3376%.
For CNC(=O)C1(CCCc2ccccn2)CCN1Cc1coc(C)n1 (stereo not drawn) the result was 1.448%.
For COc1ncccc1CNC(=O)Nc1cc(C)nn1C the result was -1.413%.
For CO[C@@H]1CN(c2ccccc2)S(=O)(=O)[C@@]12CCN(C)C2 the result was -37.87%.
For Cc1ccc(-c2ccnc3cc(CC(=O)N4CCN(C)CC4)nn23)cc1 the result was -8.383%.
For Cn1cc(C(=O)Nc2cccc(CCN3CCCC3)c2)ccc1=O the result was -0.5568% & -0.5551%.
For COC1COC2(CCN(C(=O)c3ccc4ccccc4c3)CC2)C1 (stereo not drawn) the result was -13.66%.